PubChem BioAssay AID504744 – Drosophila RNAi Screening Center – 2011
The deposit covers about 23,000 reagents; shown is an unselected part of those with a known target gene and a result. Of all reagents, 98 (0.43%) got an active call. 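Only hit calls are given; the phospho-dAkt signals, z-scores and hit direction were not deposited.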 Reagents against one gene are numbered here. A plus sign joins genes that one reagent is predicted to hit.

Test: 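Uncover factors, including feedback loops, that control dAkt activation in fly cells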 (primary screen)
Cells: Drosophila Kc167 cells
Reagent: long dsRNA against Drosophila genes, 250 ng dsRNA per well of a 384-well plate
Timing: 3 days of knock-down, then overnight serum-free starvation before stimulation
Challenge: bovine insulin at 387 nM for 10 minutes after 12 h without serum
Measurement: 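In-cell antibody fluorescence for phospho-dAkt in each well over DNA-dye signal, with log2 residuals expressed as z-scores adjusted for cell count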
Hit rule: 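Under insulin, a gene counts as a hit if the average z-score of two replicates lies above 2.5 or below -2.5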

target	dsRNA no.	activity call
CG8765	1	inactive
Tom40	1	inactive
SkpC	1	inactive
ocn	1	inactive
Cyp6a22	1	inactive
plum	1	inactive
Gmap	1	inactive
Gmap	2	inactive
Cdk9	1	inactive
CycB3	1	inactive
Rpt5	1	inactive
Ciz1	1	inactive
Vinc	1	inactive
tsg	1	inactive
Cpr62Bb	1	inactive
CG42361	1	inactive
CG33267	1	inactive
CG5162	1	inactive
CG15657	1	inactive
CG12947	1	inactive
lncRNA:CR32657	1	inactive
ND-B18	1	inactive
vtd	1	inactive
CG32712	1	inactive
salt	1	inactive
CG42260	1	inactive
CG42260	2	inactive
CG42260	3	inactive
CG31115	1	inactive
CG14561	1	inactive
verm	1	inactive
CG30114	1	inactive

Quoted from above for reference:
target	dsRNA no.	activity call
Gmap	1	inactive
Gmap	2	inactive
Cdk9	1	inactive
CycB3	1	inactive
Rpt5	1	inactive
Ciz1	1	inactive
Vinc	1	inactive
tsg	1	inactive
Cpr62Bb	1	inactive
CG42361	1	inactive

Further results follow.
target	dsRNA no.	activity call
pros	1	inactive
pros	2	inactive
pros	3	inactive
CG42820 + CG42819	1	inactive
CG42820 + CG42819	2	inactive
CG30495	1	inactive
gom	1	inactive
CG31815	1	inactive
mIF2	1	inactive
CG12093	1	inactive
AP-1-2beta	1	inactive
her	1	inactive
Crk	1	inactive
CG8478	1	inactive
hoka	1	inactive
CG6901	1	inactive
Uch-L5	1	inactive
Cpr78Cc	1	inactive
Rm62	1	inactive
CG8850	1	inactive
CG4592	1	inactive
CG6136	1	inactive
BBS9	1	inactive
mira	1	inactive
CG6283	1	inactive
Gyc76C + CG42637	1	inactive
CG7514	1	inactive
T48	1	inactive
Arv1	1	inactive
Orc4	1	inactive
stck	1	inactive
Usp7	1	inactive
Usp7	2	inactive
